Values from PubChem BioAssay AID504791 (Drosophila RNAi Screening Center, 2011).
The deposit covers about 23,000 reagents; below is an unselected part of those that have a named target and a result. Over the whole deposit, 199 (0.86%) were called active. 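Plate-scaled ratios behind the calls are not deposited; printed light signals are raw; many rows marked increased or decreased are still called inactive.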 A plus sign joins genes that one reagent is predicted to hit. Not stated in the record: the direction of the score.

- Screen: 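Genes whose knock-down strengthens or weakens small-RNA reporter silencing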 (primary screen)
- System: Drosophila S2-derived reporter cells
- Reagents: long dsRNA against Drosophila genes, about 150-250 ng dsRNA per well (siRNA assay); about 80-120 ng (miRNA assay)
- Timing: about 5 days (siRNA assay); about 4 days (miRNA assay)
- Treatment: copper sulfate induction of reporters: 25 µM (siRNA assay); 200 mM stated (miRNA assay), 1-2 days before reading
- Measured: 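Dual luciferase assay: Renilla to firefly signal ratio in each well, scaled to the mean ratio of its plate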
- Call rule: 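a well was a first-pass pick when its plate-scaled ratio rose above 1.5 (siRNA assay) or 1.6 (miRNA assay), or dropped below 0.6; a gene counted only if two separate dsRNAs agreed on retest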

| target | DRSC id | stable siRNA reporter change | stable assay Renilla, run 1 (luminescence) | stable assay firefly, run 1 (luminescence) | activity call |
| --- | --- | --- | --- | --- | --- |
| CG34247 | DRSC09933 | – | 6834 | 3.72e5 | inactive |
| CG15263 | DRSC01974 | – | 4503 | 4.80e5 | inactive |
| CG5274 | DRSC11774 | – | 12707 | 3.32e5 | inactive |
| D12 | DRSC03311 | – | 58793 | 1.03e6 | inactive |
| CG14408 | DRSC19595 | – | 8379 | 4.56e5 | inactive |
| unc-4 | DRSC20381 | – | 5514 | 3.98e5 | inactive |
| unc-4 | DRSC22074 | – | 9549 | 6.99e5 | inactive |
| ReepB | DRSC07150 | – | 8392 | 4.56e5 | inactive |
| Ccp84Ac | DRSC12588 | – | 5943 | 3.09e5 | inactive |
| sens | DRSC09263 | reporter ratio raised past the hit cutoff | 4687 | 2.10e5 | inactive |
| sens | DRSC23086 | – | 6714 | 4.34e5 | inactive |
| CG32462 | DRSC11851 | – | 8416 | 3.13e5 | inactive |
| Smurf | DRSC07641 | – | 5163 | 2.47e5 | inactive |
| CG12935 + Nop10 | DRSC07025 | – | 5390 | 3.81e5 | inactive |
| Uxt | DRSC01962 | – | 6755 | 4.03e5 | inactive |
| Cpr47Ee | DRSC06343 | – | 5615 | 2.25e5 | inactive |
| Cpr47Ee | DRSC23164 | – | 5919 | 3.24e5 | inactive |
| alpha-Est3 | DRSC12615 | – | 7718 | 4.46e5 | inactive |
| mRpL18 | DRSC06142 | – | 4678 | 3.29e5 | inactive |
| Psf2 | DRSC00516 | – | 8290 | 5.99e5 | inactive |
| Set8 | DRSC15473 | – | 9281 | 4.13e5 | inactive |
| CG8534 | DRSC16439 | – | 4504 | 3.55e5 | inactive |
| CG5916 | DRSC15917 | – | 8399 | 4.39e5 | inactive |
| CSN5 | DRSC16592 | – | 8988 | 3.74e5 | inactive |
| CSN5 | DRSC22381 | – | 7327 | 5.62e5 | inactive |
| Spn43Ab | DRSC06781 | – | 6527 | 3.64e5 | inactive |
| Rad60 | DRSC15580 | – | 6327 | 3.77e5 | inactive |
| CG14995 | DRSC08452 | reporter ratio raised past the hit cutoff | 11529 | 2.26e5 | inactive |
| CG14995 | DRSC22991 | – | 5748 | 4.06e5 | inactive |
| CG9449 | DRSC11073 | – | 7350 | 4.01e5 | inactive |
| CG15734 | DRSC19701 | – | 3723 | 2.89e5 | inactive |
| Syt7 | DRSC17130 | – | 5795 | 3.72e5 | inactive |
| Syt7 | DRSC17159 | – | 6099 | 4.18e5 | inactive |
| RasGAP1 | DRSC11172 | – | 6410 | 3.40e5 | inactive |
